# Results: PubChem BioAssay AID1347426 (Functional Genomics Laboratory (NCATS/FGL), 2020)
# In all, about 31,000 sequences went through this assay and about 1,400 (4.5%) were called active.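 How the source made its calls: active means median seed-adjusted z-score above 1 or below -1; inactive means the rest.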 The list shows a part of the results.
# Assay: Novel Modifiers of Survival Motor Neuron (SMN) Protein: Gene Identification via Genome-wide siRNA Screen;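 further: luminescence tracks full-length SMN protein made from the SMN2 reporter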
# Settings: HEK293T SMN2-luciferase reporter, siRNA knockdown, 72 h; actives lie on both sides
# Method in brief: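 Each of three siRNAs per gene is reverse-transfected (1 pmol) into reporter HEK293T cells whose luciferase output tracks SMN protein level. After 72 h culture, ONE-Glo luminescence is control-normalized, log10-transformed and MAD-standardized; Common Seed Analysis deprioritizes seed-driven hits.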
row,Sequence,median seed-adjusted z-score
1,CCGCAAAUGUGGGAUGAAATT against UBE2L3,inactive: 0.378
2,GAUGUUACAUAAAACGAUUTT against PTPN20A,inactive: 0
3,GCACGCUGCUCAUUUACAATT against PAPLN,inactive: -0.186
4,CAGAGACGGUACAACCCAATT against SLC25A28,inactive: -0.459
5,GCCUUGACCUGUCCAACAATT against TLR2,inactive: -0.0278
6,GCACUAUUGUCUCACCUGATT against PRPS1,inactive: 0.034
7,GGAAGCAGUUUAUAUCGAUTT against PDE1A,inactive: 0
8,AGGCAGUAGUAGUCACCAATT against PRPS1,inactive: 0.034
9,GCCUAAUAAGGUUCGAAAATT against MYCBP2,inactive: 0
10,GAGCCUUCAUGGUAAGGGATT against ITK,inactive: -0.0372
11,GAAACCAACUCGACCAGCATT against KCNK4,inactive: -0.446
12,GCCCAUUGUUGGUCAACUUTT against NCOA6,inactive: -0.0197
13,UCAACGCGCUCAACAACAATT against AQP5,inactive: -0.116
14,GUAUGAGGUUUAUGAUGCATT against LEPR,inactive: -0.184
15,CCGUAAGACUAAGUAGGAATT against IL1RL1,inactive: -0.286
16,AAACAUUAUUUACCAUUCATT against ZNF439,inactive: -0.26
17,GGUUAGGGCUGAAUGUUUUTT against NOX1,inactive: -0.221
18,CCCGGAUUGUUCCUACUGATT against ALG9,inactive: -0.267
19,GCAUCAGGCAACCAUUUGATT against PTPRCAP,inactive: 0.372
20,GGUAGUUGCUGGAAACCAUTT against MPPE1,inactive: -0.409
21,GCAUGUCAUGGGAUAUGGATT against SLC17A6,inactive: 0.339
22,CAGAUACAGUUCUCCCUUATT against DTX3,inactive: 0.227

row,Sequence,median seed-adjusted z-score
1,GCCUUGACGAUACAGCUAATT against KRAS,inactive: -0.0469
2,GCUAUGGAGUGGUGCAGAATT against TSNARE1,inactive: -0.0516
3,GCUCGGCUCUUUGAACGAUTT against IPO8,inactive: -0.349
4,CUCUAGGAGUGACCACGAATT against LYPLAL1,inactive: -0.425
5,CUGCUGACCUCAUACCAGATT against RASGRP4,inactive: 0.162
6,AGUACGUCAAGAUCCUGUATT against EPS8L2,inactive: -0.497
7,CGACAAGAAUGAUAAGGCATT against HSP90AB1,inactive: 0
8,GCAGCGUAGUUUUUGCGGATT against DOCK2,inactive: 0.151
9,CGCUGAAACCCGAUUCCUATT against ANPEP,inactive: 0.252
10,GGAAAAGACAUGUAUCACATT against IRAK1,inactive: -0.232
11,CUAUCUCAUUUGAUCUAUATT against SPRY3,inactive: -0.126
12,GAAAUGGAGUUACAUCCAUTT against PIGF,inactive: -0.239
13,GGCUAUCAGUCUUACUGCATT against DNMT3B,inactive: 0.0761
14,CAACGUAAGGAUAAGGAUATT against ITSN2,inactive: 0.933
15,GAAUACCCGUUCUAUGUAATT against OPN3,inactive: -0.916
16,CAGCGUAUUUGGUAUGGUUTT against SLC5A8,inactive: 0.441
17,GAACAAAAUAGACCUCUUATT against EEFSEC,inactive: -0.000421
18,CCACAUAAAGCAUCGUUAUTT against ABHD1,inactive: 0.336
19,AAACCAGGACGAAAGACAATT against CDX2,inactive: 0.23
20,CCUUACUACUGGGUAGGAATT against GPD2,inactive: 0.0606
21,CCAACGGUCCUGUCCAAAATT against SEC24A,inactive: 0.038
22,GCACCAUGAAGAUCGCUGATT against GMIP,inactive: 0.0686

row,Sequence,median seed-adjusted z-score
1,AGGUUUCAUGUUCAAGGUATT against BIN1,inactive: 0
2,CCUGUACUCUUACUACCGATT against TRPC7,inactive: 0.146
3,CCAUCAAGCUCUACAAGGATT against TOP3B,active: -1.11
4,GUUGGAAAAUCUUAAAGAATT against ENOX2,inactive: 0.0233
5,CGCUGCACACCACUCCUAATT against DNASE1L1,inactive: 0.542
6,CUCGGGCCUUCAUUCAAUATT against USP29,inactive: 0.00928
7,CUUUCUAUAUAGCGAAUUATT against AKAP4,inactive: 0.116
8,GAAGCAAGCUCGUCAUUGATT against ALG1,inactive: 0
9,CCACAUCUACCAUCACUCUTT against PCDH19,inactive: 0
10,CCAUACUGGUUGAAAAUUGTT against FCAR,inactive: -0.106
11,CAAAACUAGUAAUCCUUAUTT against CDK8,active: -1.47
12,GGCUUUGAAUUCAAUCUAUTT against GPR149,inactive: -0.186
13,CGAAGAUCCCAACCAAGCATT against EPHA4,inactive: -0.0739
14,CAAAAGAACGAGUAUCGAUTT against ATP8B2,inactive: -0.268
15,CAGAUACUAAUAUACAGAATT against DGKG,inactive: 0.227
16,CGAUGAUAGUGGCUCCGGATT against TSC22D4,inactive: -0.508
17,CGCUCCAGGAGAUAUAUAATT against AGPAT3,inactive: 0
18,GAUGGAAGAUGGAACGGUUTT against CDC42BPA,inactive: 0.257
19,CCUUCCUGCGUGUACCAAATT against NR4A3,inactive: -0.205
20,GGUAAUAAAUGGGUUGGAATT against PTGR2,inactive: 0.14
21,GAGUGAUAUGAAACGGAAATT against NVL,inactive: 0.701
22,CAGGCUUUCUAAUACGACUTT against DCHS2,inactive: 0

row,Sequence,median seed-adjusted z-score
1,GCAUUCCCAACUUAUCAUATT against ZFP3,inactive: 0
2,CGGCUAUUUUGUCAGCAAATT against ABR,inactive: 0.314
3,CGUCCUGUCUUGUAGUCUUTT against TRIM65,inactive: -0.599
4,CCGUCAUUCGUGCCCAUUATT against ST8SIA3,inactive: -0.848
5,GAGUCGAACUUUACUGUCUTT against MLL2,active: -2.11
6,GCUCUACUAUUUCUACGAUTT against SPPL2B,inactive: 0.0324
7,AGUGAGUGCUUAGGGCAAATT against ADRB3,inactive: 0.17
8,GGUGAGUAAGGAAAGCGAATT against FLT1,inactive: 0.407
9,CCCUUCUUGUUUACAUGAATT against SLC25A43,inactive: 0
10,CAUACCUCAUUAUUACCUUTT against DLAT,inactive: 0
11,ACUUCACAGCGAGCACGGATT against ASGR1,inactive: -0.128
12,UGCCGUUUUUCCUUAGAAATT against BZRPL1,inactive: 0.0787
13,GGCAUUAACAGAUCAACAATT against TOMM70A,inactive: 0.0717
14,GGCUAUUUCCUGUAUGGGATT against CAND1,inactive: 0.157
15,GCCUUUUCUGGGAACUAUUTT against CYP3A43,inactive: -0.599
16,GCCCUGCAUUUGCGAUGAATT against ZNF169,inactive: 0
17,GGGAUGCUUUGUGGACUCATT against KREMEN2,inactive: -0.0883
18,GGACUUUAUAUGUCGGCAATT against TTC35,inactive: -0.0898
19,CCACUAUGGGUAAUUUAAATT against SALL3,inactive: -0.133
20,AGCCCUUUCCUGAUAACUATT against PIGC,inactive: -0.3
21,CUACUUAUCUGGACAUGGATT against OGFOD1,inactive: 0.442
22,CGUUACCCAUUGCUACGAATT against RNF145,inactive: -0.554

# In a second layout: results already given.
row	Sequence	median seed-adjusted z-score
8	GGUGAGUAAGGAAAGCGAATT against FLT1	inactive: 0.407
9	CCCUUCUUGUUUACAUGAATT against SLC25A43	inactive: 0
10	CAUACCUCAUUAUUACCUUTT against DLAT	inactive: 0
11	ACUUCACAGCGAGCACGGATT against ASGR1	inactive: -0.128
12	UGCCGUUUUUCCUUAGAAATT against BZRPL1	inactive: 0.0787

# (cont.)

row,Sequence,median seed-adjusted z-score
1,GCUUUACCCUGAGAGAAUATT against ZNF498,inactive: -0.476
2,CUGUUGCACUGAACGAAGATT against DSG2,inactive: -0.285
3,GGAACUCAUUUGGUGGAGATT against LBXCOR1,inactive: 0.0938
4,GGUAAGAAAUUCAAAAUGATT against ZBTB43,inactive: 0.143
5,GCUCUGCAUAAUGACCUAATT against REXO4,inactive: -0.166
6,CAGAGUCUUUCAUUCGAAUTT against SPATA5,active: -1.04
7,CAUCAUCAGGAAACUCUAATT against CASP2,inactive: 0.421
8,GGAAUAACAUGAUUGUUAUTT against UGT1A6,inactive: -0.0939
9,GAUUAUAGUUUGUUCCGAATT against USP28,inactive: 0.275
10,CGCUAACUGUCACAAACUUTT against DOCK6,inactive: 0.0378
11,GGAACUUAAUGAGCAUGCATT against TUBE1,inactive: -0.00933
12,CCAUCAUCCGGGAUGAGGATT against NPEPL1,active: 1.12
13,UGAAGAUGAGGGACCCUAATT against LOXL4,inactive: -0.591
14,AGAUACCAACGACCCAUUATT against KCNJ5,inactive: 0.0644
15,GCACUGCACAGAUACACGUTT against PCDHGB4,inactive: 0.176
16,CCACGACCAUGAGAAUGGATT against MAPKAPK5,inactive: 0.489
17,GAUCAUCCCUUGUCUCUUUTT against CHRNA6,inactive: 0.21
18,CACUGGUCAUGGAAAACGATT against KLK4,inactive: 0.437
19,CAAUAUCACUACUCUUUAATT against FEV,inactive: 0.174
20,GCACGUUUUCAAUAUCAUATT against POLE2,inactive: -0.584
